# Measurements taken from publication PMC7819943, “Rice protein-binding microarrays: a tool to detect cis-acting elements near promoter regions in rice”.
# Some of the results follow.
# Target: T1, OsSMF1 (Oryza sativa, UniProt Q6ZLB0 1-436)
# T1 sequence: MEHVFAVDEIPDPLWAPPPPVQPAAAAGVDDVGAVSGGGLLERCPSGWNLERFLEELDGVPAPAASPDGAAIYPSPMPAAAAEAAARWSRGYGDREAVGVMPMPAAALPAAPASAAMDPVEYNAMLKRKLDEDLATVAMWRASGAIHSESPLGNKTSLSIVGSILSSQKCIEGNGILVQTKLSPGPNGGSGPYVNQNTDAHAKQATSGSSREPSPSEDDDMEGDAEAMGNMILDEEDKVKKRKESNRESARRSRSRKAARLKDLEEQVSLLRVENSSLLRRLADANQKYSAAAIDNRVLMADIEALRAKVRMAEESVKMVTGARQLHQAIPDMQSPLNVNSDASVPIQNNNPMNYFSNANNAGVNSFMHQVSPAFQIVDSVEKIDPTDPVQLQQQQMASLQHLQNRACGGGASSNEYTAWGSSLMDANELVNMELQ
# Experiment: protein-binding microarray (RPBM); PBS, 2% BSA, 51.3 ng/ul salmon testes DNA, 50 uM zinc acetate, 200 nM TF, 25 C, 1 h; high values mean tight binding
# Conditions: protein: recombinant; tags: N-terminal polyhistidine and DsRed monomer fusion (pET32a); chain copies: 2; label: CyDye5-dUTP incorporated in the synthesized complementary strand; 3' TTTTT single-stranded linker to array surface; dsDNA, one strand shown
# Method in brief: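 Binding signal here means per-feature fluorescence intensity in arbitrary units. The values were read on an Axon 4000B scanner after a custom Agilent array, double-stranded by primer extension with Cy5-dUTP, was incubated with 200 nM protein at 25 °C for 1 h in PBS with 2% BSA, salmon testes DNA and 50 µM zinc acetate, then washed. The proteins were transcription factors with an N-terminal polyhistidine tag and DsRed, expressed in E. coli BL21-CodonPlus and purified on Ni–NTA.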
row,Sequence,binding signal
1,AGCGTGGCGATGGCGGTGGGCACATTGAAGAGGATGAGCGCGGAGTCACCTAGTGCAG,4940 fluorescence intensity (a.u.)
2,TTCCGCCGCTGACGTCACGCATCCCATCACACACGTCACGCGGAGTCACCTAGTGCAG,21200 fluorescence intensity (a.u.)
3,CGATGAGATCATGAGAGATTGACATGTCAACGGACGCGAACGGAGTCACCTAGTGCAG,3170 fluorescence intensity (a.u.)
4,AATTAAACAATCGTGATCCACGTGCTGACAAGTAGGTCGCCGGAGTCACCTAGTGCAG,4720 fluorescence intensity (a.u.)
5,GCCGGGCCGGGCCGAATTCTGATGAGGCTGGCAGGTGGGCCGGAGTCACCTAGTGCAG,30000 fluorescence intensity (a.u.)
6,GCAGGTGGGCCCAGATGGTGGTGTCCCCACCATGTCAGCGCGGAGTCACCTAGTGCAG,3820 fluorescence intensity (a.u.)
7,ATTATCAAATCATGACGCAATTATGCTTAAAAGATTCGTCCGGAGTCACCTAGTGCAG,3150 fluorescence intensity (a.u.)
8,ATCCTTTTGAGCGTAGACTTATCTATCAAAAGGTGATGAACGGAGTCACCTAGTGCAG,3560 fluorescence intensity (a.u.)
9,TCGTGGGACGGCCTGCACATGACGGAGGCGGTGTACCGGACGGAGTCACCTAGTGCAG,3560 fluorescence intensity (a.u.)
10,AGCCTAGATCCACGGCACCAGGTTCGTCCCTTACCCCTCTCGGAGTCACCTAGTGCAG,3830 fluorescence intensity (a.u.)
11,CATTTGCTAATGACGTATTAATTAGGCTTAATAAATTTGTCGGAGTCACCTAGTGCAG,5970 fluorescence intensity (a.u.)
12,AAGTGCGTGCCTATGAGGCATCCTAATCAGCATTCAACTTCGGAGTCACCTAGTGCAG,4340 fluorescence intensity (a.u.)
13,TGGATCGGGTGATGTGTTGTCGTTCCCTCGGTGTATCCTTCGGAGTCACCTAGTGCAG,6220 fluorescence intensity (a.u.)
14,GACAAACTGCAGCATATACACACACGTACGCACCCGCATCCGGAGTCACCTAGTGCAG,6520 fluorescence intensity (a.u.)
15,CATTATATGCTACCTCTAAAATATTGCACTCAAATAATTACGGAGTCACCTAGTGCAG,3370 fluorescence intensity (a.u.)
16,TTGTTCCCTTTCTCTTCAATTACGCCATTGCCGTCTTGCCCGGAGTCACCTAGTGCAG,11000 fluorescence intensity (a.u.)
17,TCACCTTGAGGACAACCAATTAACCGGTGCATTGCCACCTCGGAGTCACCTAGTGCAG,4020 fluorescence intensity (a.u.)
18,TGTCCCCTATTTCACGTGACGTGACAACTGAATCAACGCGCGGAGTCACCTAGTGCAG,5740 fluorescence intensity (a.u.)
19,TAATAGTATAGTGACTATAGTCCACTACTAGCTCCAAATTCGGAGTCACCTAGTGCAG,20600 fluorescence intensity (a.u.)
20,CCGGCCGCAGCAACAAGATTAGGAAGATAGAGTGATTCATCGGAGTCACCTAGTGCAG,17700 fluorescence intensity (a.u.)
21,TCCCTTGTCGACACATGCGTGTCAGCTCCAGGTTTATAACCGGAGTCACCTAGTGCAG,6370 fluorescence intensity (a.u.)

row,Sequence,binding signal
1,CTTAGTGCCAAGCGGTCTGAGGTGTCATGGCTTTCACTCACGGAGTCACCTAGTGCAG,8740 fluorescence intensity (a.u.)
2,TGATTTGTGTTACCATGACGTCTGTCTATTTCCTAGTCATCGGAGTCACCTAGTGCAG,5000 fluorescence intensity (a.u.)
3,CCTTCCCCTTCCCGGCGCGCGCATCGCATGTTCCCGCGACCGGAGTCACCTAGTGCAG,9090 fluorescence intensity (a.u.)
4,CCTCATCTGTATTTTGGTGACTGGGCTGACACATCAGCACCGGAGTCACCTAGTGCAG,25600 fluorescence intensity (a.u.)
5,ACCGCATCACATCAAGCATCCACCAACCAACCCAACAACACGGAGTCACCTAGTGCAG,3910 fluorescence intensity (a.u.)
6,ATTATTATTTATTTTGTTTATCATTTGCTTTATTATCAAACGGAGTCACCTAGTGCAG,22200 fluorescence intensity (a.u.)
7,TGGTCGCCCACAGAATTTCCACGTGTCTCACGGTCAGCCGCGGAGTCACCTAGTGCAG,17100 fluorescence intensity (a.u.)
8,ACCCCATGATCGTTCGCTTCGCTCTGAGCCTCTGACCTGTCGGAGTCACCTAGTGCAG,3830 fluorescence intensity (a.u.)
9,CACTACATGAACTGCCACCGCGGATGCGGTGATCTCATCTCGGAGTCACCTAGTGCAG,4010 fluorescence intensity (a.u.)
10,AAACAAGTGCCAAGCAAACGGAGTCATCTTAACCCCTCCCCGGAGTCACCTAGTGCAG,4280 fluorescence intensity (a.u.)
11,CTGCTCCGGCCACGTGGACCCACCATCGGGACGCCACCTCCGGAGTCACCTAGTGCAG,14600 fluorescence intensity (a.u.)
12,TTATTCACACTGACAGCAATATATCTTCAGGGTTACAGTGCGGAGTCACCTAGTGCAG,3150 fluorescence intensity (a.u.)
13,TTCAGAAATACTAGAACGTACCAGGGGCAAACTCCAAAACCGGAGTCACCTAGTGCAG,19500 fluorescence intensity (a.u.)
14,GTCGCCGCCAATCATGTCGTCATCGTGTCGCCATCCCATCCGGAGTCACCTAGTGCAG,5730 fluorescence intensity (a.u.)
15,GGACCTGTCTGCAAATTACTCCAGCTCATCGTCTCCGCCGCGGAGTCACCTAGTGCAG,5350 fluorescence intensity (a.u.)
16,GTTGGGACTTGGGATGGGCCGACGTGCTGCAAGCCTGCAACGGAGTCACCTAGTGCAG,3550 fluorescence intensity (a.u.)
17,CGTCGTCGCCGCCGCCGCCCTCTGCGTCGACGCTGCGGCACGGAGTCACCTAGTGCAG,3220 fluorescence intensity (a.u.)
18,TCGCTCTACCCCACCACTTCCTCACACGCGGCCGTCGCCGCGGAGTCACCTAGTGCAG,3370 fluorescence intensity (a.u.)
19,TTTCTATTTTACCCTTAATTGTCCTTCTATTCTTACCTATCGGAGTCACCTAGTGCAG,3270 fluorescence intensity (a.u.)
20,CCCTGTCCTGAAACGCCGTGACGGCTTCTCCTTCTCCCTCCGGAGTCACCTAGTGCAG,8960 fluorescence intensity (a.u.)
21,GACCACACACTTGTTGGCGCCCGCGTGGATCTCTCCATCTCGGAGTCACCTAGTGCAG,3580 fluorescence intensity (a.u.)

# Taken from above for reference:
row,Sequence,binding signal
11,CTGCTCCGGCCACGTGGACCCACCATCGGGACGCCACCTCCGGAGTCACCTAGTGCAG,14600 fluorescence intensity (a.u.)
12,TTATTCACACTGACAGCAATATATCTTCAGGGTTACAGTGCGGAGTCACCTAGTGCAG,3150 fluorescence intensity (a.u.)
